Measured values as given in patent publication US20240360215A1, “ANTI-CD19 ANTIBODY IN THE TREATMENT OF CNS LYMPHOMA” (The Regents of the University of California, priority 2023, published 2024).
At least one structure is not confirmed: it was looked up by name or label, or the drawing left a doubt.

System: secondary CNS lymphoma
Assay: illustrative treatment of first patient (large-B cell lymphoma, CNS relapse), MRI follow-up
Type: in vivo, human
Details: third CNS relapse, before tafasitamab
Text: Staging documented concomitant right adrenal involvement. Treatment at an outside institution consisted of six cycles of high-dose methotrexate (HD-MTX) intercalated with rituximab, cyclophosphamide, adriamycin, vincristine, prednisone (R-CHOP) plus intrathecal cytarabine, also six cycles. At 7 months there was multifocal CNS progression and the patient was transferred to a tertiary care center where they received eight cycles of HD-MTX, six doses of temozolomide plus rituximab (MTR), consolidation with etoposide-ara-C (Soussain et al, J. Clin. Oncol 19:[…]; Rubenstein et al, J. Clin Oncol. 31:3061-8, 2013) followed by autologous stem cell transplantation and lenalidomide maintenance. However, at 6 months after transplantation, multifocal CNS progression was again evident on magnetic resonance imaging (MRI). This second relapse was treated with repeat HD-MTX (eight cycles) plus rituximab followed by focal irradiation to a refractory lesion in the right postcentral gyrus, followed by pomalidomide maintenance, resulting in a CNS response duration of nearly 2 years. A third isolated CNS relapse manifested by new multifocal lesions with mild left-to-right midline shift. […]

C=CC(=O)N1CCC[C@@H](n2nc(-c3ccc(Oc4ccccc4)cc3)c3c(N)ncnc32)C1 [ibrutinib]
MRI response to earlier therapy: only partial responses
